This is one part of the list.
Columns and labels:
Assay in all cases: log2 fold change, soluble protein after heating vs DMSO (PISA); higher = thermal stabilisation; K562 lysate, 10 uM; active = over 0.2 and 3.5 SD of the protein, either way, in both replicates (recomputed)
lapatinib = compound: CS(=O)(=O)CCNCc1ccc(-c2ccc3ncnc(Nc4ccc(OCc5cccc(F)c5)c(Cl)c4)c3c2)o1 [lapatinib]
Outline: (§1)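 Following dounce homogenisation of K562 pellets in PBS pH 7.4 with 1 mM MgCl2, crude extract at 1 mg/mL protein was incubated for 30 min with 10 μM compound. Aliquots were then heated for 3 min over 48°C-58°C and pooled, NP-40 was added to 0.5% at 4°C, and soluble protein was recovered as the supernatant at 21,000xg for 90 min. Channel-sum-equalised TMTpro 16plex LC-MS/MS quantified this protein. Each value, from duplicates, is a log-two fold change in thermal stability relative to solvent controls.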

The chains behind the UniProt entries cited, without tags or fusion partners. Where a name states a change or a piece, a line headed by the entry shows the natural chain unless it says otherwise.
UniProt Q9Y2Q3: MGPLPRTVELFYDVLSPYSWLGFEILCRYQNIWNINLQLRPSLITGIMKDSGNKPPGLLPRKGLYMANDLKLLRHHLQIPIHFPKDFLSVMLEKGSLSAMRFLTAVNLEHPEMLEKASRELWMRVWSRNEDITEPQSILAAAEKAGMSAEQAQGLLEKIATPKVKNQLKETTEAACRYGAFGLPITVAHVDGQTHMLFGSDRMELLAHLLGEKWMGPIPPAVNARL
UniProt P16402, whole entry, looked up: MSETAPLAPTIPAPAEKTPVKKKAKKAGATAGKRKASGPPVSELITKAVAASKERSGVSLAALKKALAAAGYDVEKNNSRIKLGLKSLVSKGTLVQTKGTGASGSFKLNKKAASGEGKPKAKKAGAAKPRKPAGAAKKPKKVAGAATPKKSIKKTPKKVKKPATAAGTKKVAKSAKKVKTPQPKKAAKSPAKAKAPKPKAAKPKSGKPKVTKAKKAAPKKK
UniProt P49590: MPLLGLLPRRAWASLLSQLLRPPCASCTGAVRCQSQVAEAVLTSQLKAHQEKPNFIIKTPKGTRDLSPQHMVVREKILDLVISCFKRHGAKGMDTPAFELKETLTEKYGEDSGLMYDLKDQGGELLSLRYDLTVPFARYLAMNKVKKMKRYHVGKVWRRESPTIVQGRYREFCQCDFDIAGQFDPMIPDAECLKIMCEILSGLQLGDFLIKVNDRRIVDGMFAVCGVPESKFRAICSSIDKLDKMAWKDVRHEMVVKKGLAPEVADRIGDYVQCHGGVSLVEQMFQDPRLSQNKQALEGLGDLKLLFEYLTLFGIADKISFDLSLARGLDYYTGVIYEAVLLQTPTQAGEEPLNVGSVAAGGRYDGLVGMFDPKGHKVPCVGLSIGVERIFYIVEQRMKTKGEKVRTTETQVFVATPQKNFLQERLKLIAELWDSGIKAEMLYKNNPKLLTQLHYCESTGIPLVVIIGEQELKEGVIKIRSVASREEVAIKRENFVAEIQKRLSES
UniProt Q7Z4H3: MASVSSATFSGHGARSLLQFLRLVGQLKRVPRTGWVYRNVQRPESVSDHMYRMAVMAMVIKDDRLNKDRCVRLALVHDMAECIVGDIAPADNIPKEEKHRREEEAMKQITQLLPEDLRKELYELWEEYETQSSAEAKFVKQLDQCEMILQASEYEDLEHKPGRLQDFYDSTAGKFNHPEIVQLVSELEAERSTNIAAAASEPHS
UniProt Q9H6D7: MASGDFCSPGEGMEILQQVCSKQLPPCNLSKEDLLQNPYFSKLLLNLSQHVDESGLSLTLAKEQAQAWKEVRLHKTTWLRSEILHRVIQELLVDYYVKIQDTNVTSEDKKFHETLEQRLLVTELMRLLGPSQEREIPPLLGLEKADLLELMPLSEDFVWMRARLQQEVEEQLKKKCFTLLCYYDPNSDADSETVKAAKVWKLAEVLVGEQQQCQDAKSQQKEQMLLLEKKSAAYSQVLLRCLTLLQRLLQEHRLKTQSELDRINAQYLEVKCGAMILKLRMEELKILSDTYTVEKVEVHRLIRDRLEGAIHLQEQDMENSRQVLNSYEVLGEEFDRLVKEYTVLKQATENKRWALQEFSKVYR
UniProt P69891: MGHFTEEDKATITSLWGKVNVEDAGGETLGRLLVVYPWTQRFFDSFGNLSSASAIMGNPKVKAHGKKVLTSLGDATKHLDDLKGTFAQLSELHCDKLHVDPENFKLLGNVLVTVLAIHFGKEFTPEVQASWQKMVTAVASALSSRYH
UniProt Q92664: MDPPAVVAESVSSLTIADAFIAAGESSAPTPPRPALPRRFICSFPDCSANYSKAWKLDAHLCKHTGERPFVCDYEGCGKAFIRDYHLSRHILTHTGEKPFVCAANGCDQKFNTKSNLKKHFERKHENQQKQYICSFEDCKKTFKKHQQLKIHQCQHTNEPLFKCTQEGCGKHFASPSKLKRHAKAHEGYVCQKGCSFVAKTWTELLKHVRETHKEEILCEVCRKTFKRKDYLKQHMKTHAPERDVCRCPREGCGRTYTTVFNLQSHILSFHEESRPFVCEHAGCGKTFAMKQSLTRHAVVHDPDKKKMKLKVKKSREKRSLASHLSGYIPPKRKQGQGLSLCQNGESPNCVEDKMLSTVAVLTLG
UniProt O00178: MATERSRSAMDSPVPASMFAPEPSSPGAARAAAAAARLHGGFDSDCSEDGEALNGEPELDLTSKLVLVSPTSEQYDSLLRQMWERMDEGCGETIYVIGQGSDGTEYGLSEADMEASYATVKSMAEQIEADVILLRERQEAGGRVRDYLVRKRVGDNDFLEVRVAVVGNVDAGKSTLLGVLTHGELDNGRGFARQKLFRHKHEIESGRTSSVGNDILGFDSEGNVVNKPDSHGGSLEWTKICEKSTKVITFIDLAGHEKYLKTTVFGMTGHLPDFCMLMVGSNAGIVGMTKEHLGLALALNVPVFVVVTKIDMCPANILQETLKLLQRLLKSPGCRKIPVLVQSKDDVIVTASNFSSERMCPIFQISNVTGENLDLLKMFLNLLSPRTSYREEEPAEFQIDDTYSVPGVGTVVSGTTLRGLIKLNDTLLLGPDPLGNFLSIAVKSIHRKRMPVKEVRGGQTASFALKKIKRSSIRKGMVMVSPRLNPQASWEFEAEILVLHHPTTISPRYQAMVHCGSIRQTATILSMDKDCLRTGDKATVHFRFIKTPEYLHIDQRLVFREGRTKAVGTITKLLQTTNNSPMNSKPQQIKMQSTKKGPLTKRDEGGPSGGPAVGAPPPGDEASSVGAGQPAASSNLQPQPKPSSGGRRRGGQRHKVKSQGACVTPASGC
UniProt P30711: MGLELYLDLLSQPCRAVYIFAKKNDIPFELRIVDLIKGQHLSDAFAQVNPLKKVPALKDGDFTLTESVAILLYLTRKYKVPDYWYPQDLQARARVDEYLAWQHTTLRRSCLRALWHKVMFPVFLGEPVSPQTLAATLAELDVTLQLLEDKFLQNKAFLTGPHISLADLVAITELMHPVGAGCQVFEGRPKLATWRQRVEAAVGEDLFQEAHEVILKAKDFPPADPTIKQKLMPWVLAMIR
UniProt P40939: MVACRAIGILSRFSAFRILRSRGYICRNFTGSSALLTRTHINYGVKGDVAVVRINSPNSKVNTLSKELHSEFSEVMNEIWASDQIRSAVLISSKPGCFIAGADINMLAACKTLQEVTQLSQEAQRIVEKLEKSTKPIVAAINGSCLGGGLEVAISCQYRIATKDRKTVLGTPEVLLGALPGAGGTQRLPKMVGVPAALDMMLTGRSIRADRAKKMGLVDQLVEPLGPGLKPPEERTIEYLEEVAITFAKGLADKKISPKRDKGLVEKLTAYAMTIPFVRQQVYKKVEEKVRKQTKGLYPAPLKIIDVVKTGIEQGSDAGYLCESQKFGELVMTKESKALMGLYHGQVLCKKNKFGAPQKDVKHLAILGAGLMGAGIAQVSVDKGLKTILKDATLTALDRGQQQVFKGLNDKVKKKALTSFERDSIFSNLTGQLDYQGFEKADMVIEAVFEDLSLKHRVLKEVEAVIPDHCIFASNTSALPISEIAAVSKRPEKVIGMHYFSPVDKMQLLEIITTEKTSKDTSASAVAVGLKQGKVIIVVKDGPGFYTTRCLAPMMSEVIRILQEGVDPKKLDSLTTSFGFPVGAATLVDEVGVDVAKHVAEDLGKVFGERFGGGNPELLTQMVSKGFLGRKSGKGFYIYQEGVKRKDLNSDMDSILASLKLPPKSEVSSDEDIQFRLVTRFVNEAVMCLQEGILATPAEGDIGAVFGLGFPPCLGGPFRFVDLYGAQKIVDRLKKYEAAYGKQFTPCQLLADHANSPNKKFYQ
UniProt Q9P2D3: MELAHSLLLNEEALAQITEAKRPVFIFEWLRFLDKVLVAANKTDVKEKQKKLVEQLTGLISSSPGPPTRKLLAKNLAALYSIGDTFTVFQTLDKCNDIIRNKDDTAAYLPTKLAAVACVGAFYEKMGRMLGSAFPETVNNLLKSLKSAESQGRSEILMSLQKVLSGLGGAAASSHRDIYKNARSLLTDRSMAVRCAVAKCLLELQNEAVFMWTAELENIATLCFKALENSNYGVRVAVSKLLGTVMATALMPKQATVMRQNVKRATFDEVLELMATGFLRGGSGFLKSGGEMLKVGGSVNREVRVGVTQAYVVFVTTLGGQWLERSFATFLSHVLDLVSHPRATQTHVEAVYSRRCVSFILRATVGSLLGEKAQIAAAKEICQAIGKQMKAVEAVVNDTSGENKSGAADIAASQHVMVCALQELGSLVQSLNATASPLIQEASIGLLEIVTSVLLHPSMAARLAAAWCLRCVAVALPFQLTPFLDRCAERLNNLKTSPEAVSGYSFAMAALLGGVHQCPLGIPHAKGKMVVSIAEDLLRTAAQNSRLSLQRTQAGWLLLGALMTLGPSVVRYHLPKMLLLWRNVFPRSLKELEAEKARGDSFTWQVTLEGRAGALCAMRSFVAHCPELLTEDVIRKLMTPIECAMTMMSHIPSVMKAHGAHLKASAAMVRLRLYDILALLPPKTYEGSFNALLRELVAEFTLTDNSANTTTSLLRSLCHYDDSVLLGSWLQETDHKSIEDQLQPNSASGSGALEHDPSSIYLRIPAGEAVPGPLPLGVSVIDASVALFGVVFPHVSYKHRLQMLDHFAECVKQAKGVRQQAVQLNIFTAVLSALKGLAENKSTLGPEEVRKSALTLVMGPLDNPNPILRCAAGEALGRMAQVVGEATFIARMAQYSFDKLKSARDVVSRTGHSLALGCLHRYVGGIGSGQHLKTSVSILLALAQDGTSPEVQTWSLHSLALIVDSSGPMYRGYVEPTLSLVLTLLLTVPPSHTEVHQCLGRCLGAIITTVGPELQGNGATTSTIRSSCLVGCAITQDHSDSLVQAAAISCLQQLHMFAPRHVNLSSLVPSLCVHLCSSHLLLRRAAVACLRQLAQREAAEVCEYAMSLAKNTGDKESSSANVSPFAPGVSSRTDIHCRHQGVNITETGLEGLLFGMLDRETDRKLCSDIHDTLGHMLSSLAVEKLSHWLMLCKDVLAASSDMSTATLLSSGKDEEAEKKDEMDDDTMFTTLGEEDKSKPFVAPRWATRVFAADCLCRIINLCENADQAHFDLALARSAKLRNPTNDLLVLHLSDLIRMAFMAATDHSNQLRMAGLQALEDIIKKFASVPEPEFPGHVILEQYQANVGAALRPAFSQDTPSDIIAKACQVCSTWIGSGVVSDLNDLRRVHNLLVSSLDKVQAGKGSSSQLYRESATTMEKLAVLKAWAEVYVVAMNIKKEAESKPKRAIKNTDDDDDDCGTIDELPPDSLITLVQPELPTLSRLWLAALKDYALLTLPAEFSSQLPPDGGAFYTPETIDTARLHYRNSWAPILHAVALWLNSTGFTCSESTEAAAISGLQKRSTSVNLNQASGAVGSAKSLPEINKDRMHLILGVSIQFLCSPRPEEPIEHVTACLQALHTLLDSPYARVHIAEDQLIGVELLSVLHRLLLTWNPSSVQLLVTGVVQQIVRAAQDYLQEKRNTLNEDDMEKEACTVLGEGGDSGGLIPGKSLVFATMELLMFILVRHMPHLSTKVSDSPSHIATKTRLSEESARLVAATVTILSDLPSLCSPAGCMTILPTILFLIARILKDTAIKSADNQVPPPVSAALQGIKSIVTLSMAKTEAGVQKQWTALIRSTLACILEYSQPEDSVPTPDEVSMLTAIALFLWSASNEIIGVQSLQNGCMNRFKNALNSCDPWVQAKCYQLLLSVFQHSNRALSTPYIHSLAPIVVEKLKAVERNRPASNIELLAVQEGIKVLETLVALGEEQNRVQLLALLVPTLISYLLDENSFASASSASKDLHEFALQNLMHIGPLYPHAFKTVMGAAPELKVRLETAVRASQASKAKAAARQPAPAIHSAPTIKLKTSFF
UniProt P32780: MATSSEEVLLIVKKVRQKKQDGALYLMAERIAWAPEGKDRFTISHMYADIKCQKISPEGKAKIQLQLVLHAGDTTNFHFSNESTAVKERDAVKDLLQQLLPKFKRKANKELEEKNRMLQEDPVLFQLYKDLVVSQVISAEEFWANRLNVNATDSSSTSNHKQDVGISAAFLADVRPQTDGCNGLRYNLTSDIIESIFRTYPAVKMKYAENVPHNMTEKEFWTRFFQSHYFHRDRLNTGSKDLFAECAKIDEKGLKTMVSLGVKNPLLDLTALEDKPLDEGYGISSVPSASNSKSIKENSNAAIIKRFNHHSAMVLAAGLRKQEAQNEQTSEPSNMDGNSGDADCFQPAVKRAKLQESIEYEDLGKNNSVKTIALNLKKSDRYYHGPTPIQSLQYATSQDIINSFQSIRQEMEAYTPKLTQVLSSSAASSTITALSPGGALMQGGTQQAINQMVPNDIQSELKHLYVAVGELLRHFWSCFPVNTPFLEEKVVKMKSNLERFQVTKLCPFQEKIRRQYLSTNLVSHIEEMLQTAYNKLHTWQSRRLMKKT
UniProt P16401, whole entry, looked up: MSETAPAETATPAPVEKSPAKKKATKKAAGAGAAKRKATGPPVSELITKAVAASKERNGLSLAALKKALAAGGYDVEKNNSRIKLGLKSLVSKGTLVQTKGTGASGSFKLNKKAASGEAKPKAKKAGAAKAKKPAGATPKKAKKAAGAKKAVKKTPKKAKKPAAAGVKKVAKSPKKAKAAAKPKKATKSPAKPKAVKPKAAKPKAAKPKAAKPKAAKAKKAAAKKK

pictilisib = compound: CS(=O)(=O)N1CCN(Cc2cc3nc(-c4cccc5[nH]ncc45)nc(N4CCOCC4)c3s2)CC1 [pictilisib]
Outline: as §1

crizotinib = compound: C[C@@H](Oc1cc(-c2cnn(C3CCNCC3)c2)cnc1N)c1c(Cl)ccc(F)c1Cl [crizotinib]
Outline: as §1

[1] = compound: C[C@H](C1=CC=C(C=C1)C(=O)NC2=C3C=CNC3=NC=C2)N
Outline: as §1

duvelisib = compound: C[C@H](Nc1ncnc2nc[nH]c12)c1cc2cccc(Cl)c2c(=O)n1-c1ccccc1 [duvelisib]
Outline: as §1

gandotinib = compound: Cc1cc(Nc2cc(CN3CCOCC3)c3nc(C)c(Cc4ccc(Cl)cc4F)n3n2)n[nH]1 [gandotinib]
Outline: as §1

tozasertib = compound: Cc1cc(Nc2cc(N3CCN(C)CC3)nc(Sc3ccc(NC(=O)C4CC4)cc3)n2)n[nH]1 [tozasertib]
Outline: as §1

doramapimod = compound: Cc1ccc(-n2nc(C(C)(C)C)cc2NC(=O)Nc2ccc(OCCN3CCOCC3)c3ccccc23)cc1 [doramapimod]
Outline: as §1

bafetinib = compound: Cc1ccc(NC(=O)c2ccc(CN3CC[C@H](N(C)C)C3)c(C(F)(F)F)c2)cc1Nc1nccc(-c2cncnc2)n1 [bafetinib]
Outline: as §1

[2] = compound: Cc1cccc(CC(=O)N2CCc3c2ccc(-c2cn(C)c4ncnc(N)c24)c3F)n1
Outline: as §1

nilotinib = compound: Cc1cn(-c2cc(NC(=O)c3ccc(C)c(Nc4nccc(-c5cccnc5)n4)c3)cc(C(F)(F)F)c2)cn1 [nilotinib]
Outline: as §1

[3] = compound: Cc1nc(Nc2n[nH]c3c2CN(C(=O)N[C@H](CN(C)C)c2ccccc2)C3(C)C)c2sccc2n1
Outline: as §1

dasatinib = compound: Cc1nc(Nc2ncc(C(=O)Nc3c(C)cccc3Cl)s2)cc(N2CCN(CCO)CC2)n1 [dasatinib]
Outline: as §1

[4] = compound: Cc1ncc(-c2ccnc(Nc3ccc(S(C)(=O)=O)cc3)n2)n1C(C)C
Outline: as §1

[5] = compound: Cn1cc(-c2ccc3c(c2)CCN3C(=O)Cc2cccc(C(F)(F)F)c2)c2c(N)ncnc21
Outline: as §1

quisinostat = compound: Cn1cc(CNCC2CCN(c3ncc(C(=O)NO)cn3)CC2)c2ccccc21 [quisinostat]
Outline: as §1

tipifarnib = compound: Cn1cncc1[C@@](N)(c1ccc(Cl)cc1)c1ccc2c(c1)c(-c1cccc(Cl)c1)cc(=O)n2C [tipifarnib]
Outline: as §1

[6] = compound: NC(=O)Nc1cc(-c2cccc(F)c2)sc1C(=O)N[C@H]1CCCNC1
Outline: as §1

[7] = compound: NC(=O)c1cnc(N[C@@H]2CCCC[C@@H]2N)nc1Nc1cccc(-n2nccn2)c1
Outline: as §1

[8] = compound: NC1(c2ccc(-c3nc4ccn5c(=O)[nH]nc5c4cc3-c3ccccc3)cc2)CCC1
Outline: as §1

Measured: log2 fold change

GSTK1 (UniProt Q9Y2Q3)
inactive: lapatinib 0.007 | pictilisib -0.032 | crizotinib -0.006 | [1] -0.003 | duvelisib 0.007 | gandotinib -0.05 | tozasertib 0.028 | doramapimod -0.005 | bafetinib -0.02 | [2] 0.027 | nilotinib -0.018 | [3] 0.03 | dasatinib 0.001 | [4] 0.027 | [5] -0.013 | quisinostat 0.02 | tipifarnib 0.022 | [6] -0.004 | [7] 0.02 | [8] -0.03

H1-3 (UniProt P16402)
inactive: lapatinib -0.018 | pictilisib 0.003 | crizotinib -0.003 | [1] 0.028 | duvelisib -0.039 | gandotinib 0.014 | tozasertib -0.016 | doramapimod -0.016 | bafetinib 0.037 | [2] -0.021 | nilotinib 0.024 | [3] -0.003 | dasatinib 0.006 | [4] 0.002 | [5] -0.067 | quisinostat -0.021 | tipifarnib 0.026 | [6] 0.022 | [7] -0.034 | [8] -0.019

HARS2 (UniProt P49590)
inactive: lapatinib 0.012 | pictilisib -0.025 | crizotinib -0.136 | [1] 0.025 | duvelisib 0.14 | gandotinib -0.035 | tozasertib -0.061 | doramapimod 0.026 | bafetinib 0.031 | [2] -0.013 | nilotinib 0.015 | [3] -0.02 | dasatinib -0.027 | [4] -0.023 | [5] 0.06 | quisinostat 0.005 | tipifarnib 0.012 | [6] 0.027 | [7] 0.036 | [8] -0.014

HDDC2 (UniProt Q7Z4H3)
inactive: lapatinib -0.014 | pictilisib -0.042 | crizotinib 0.023 | [1] -0.002 | duvelisib -0.022 | gandotinib -0.028 | tozasertib -0.01 | doramapimod 0.004 | bafetinib 0.053 | [2] -0.04 | nilotinib 0.055 | [3] -0.002 | dasatinib 0.039 | [4] 0.034 | [5] -0.012 | quisinostat 0.026 | tipifarnib 0.017 | [6] 0 | [7] -0.037 | [8] 0.008

HAUS4 (UniProt Q9H6D7)
inactive: lapatinib 0.021 | pictilisib -0.02 | crizotinib -0.083 | [1] -0.063 | duvelisib -0.031 | gandotinib -0.009 | tozasertib 0.042 | doramapimod 0.043 | bafetinib 0.003 | [2] 0.099 | nilotinib 0.03 | [3] -0.05 | dasatinib -0.052 | [4] 0.016 | [5] 0.052 | quisinostat -0.065 | tipifarnib -0.021 | [6] 0.053 | [7] 0.014 | [8] -0.012

HBG1 (UniProt P69891)
inactive: lapatinib 0.042 | pictilisib -0.033 | crizotinib 0.015 | [1] 0.065 | duvelisib 0.001 | gandotinib -0.023 | tozasertib -0.021 | doramapimod -0.006 | bafetinib -0.006 | [2] -0.026 | nilotinib 0.054 | [3] -0.018 | dasatinib 0.024 | [4] 0.019 | [5] -0.053 | quisinostat 0.053 | tipifarnib 0.021 | [6] -0.023 | [7] -0.021 | [8] -0.011

GTF3A (UniProt Q92664)
inactive: lapatinib -0.068 | pictilisib 0.119 | crizotinib -0.099 | [1] 0.095 | duvelisib 0.077 | gandotinib -0.097 | tozasertib -0.001 | doramapimod 0.036 | bafetinib -0.075 | [2] -0.106 | nilotinib 0.035 | [3] 0.022 | dasatinib 0.037 | [4] 0.126 | [5] 0 | quisinostat 0.079 | tipifarnib 0.052 | [6] -0.001 | [7] 0.039 | [8] 0.064

4 consecutive records from above, for reference:
GSTK1 (UniProt Q9Y2Q3)
inactive: lapatinib 0.007 | pictilisib -0.032 | crizotinib -0.006 | [1] -0.003 | duvelisib 0.007 | gandotinib -0.05 | tozasertib 0.028 | doramapimod -0.005 | bafetinib -0.02 | [2] 0.027 | nilotinib -0.018 | [3] 0.03 | dasatinib 0.001 | [4] 0.027 | [5] -0.013 | quisinostat 0.02 | tipifarnib 0.022 | [6] -0.004 | [7] 0.02 | [8] -0.03

H1-3 (UniProt P16402)
inactive: lapatinib -0.018 | pictilisib 0.003 | crizotinib -0.003 | [1] 0.028 | duvelisib -0.039 | gandotinib 0.014 | tozasertib -0.016 | doramapimod -0.016 | bafetinib 0.037 | [2] -0.021 | nilotinib 0.024 | [3] -0.003 | dasatinib 0.006 | [4] 0.002 | [5] -0.067 | quisinostat -0.021 | tipifarnib 0.026 | [6] 0.022 | [7] -0.034 | [8] -0.019

HARS2 (UniProt P49590)
inactive: lapatinib 0.012 | pictilisib -0.025 | crizotinib -0.136 | [1] 0.025 | duvelisib 0.14 | gandotinib -0.035 | tozasertib -0.061 | doramapimod 0.026 | bafetinib 0.031 | [2] -0.013 | nilotinib 0.015 | [3] -0.02 | dasatinib -0.027 | [4] -0.023 | [5] 0.06 | quisinostat 0.005 | tipifarnib 0.012 | [6] 0.027 | [7] 0.036 | [8] -0.014

HDDC2 (UniProt Q7Z4H3)
inactive: lapatinib -0.014 | pictilisib -0.042 | crizotinib 0.023 | [1] -0.002 | duvelisib -0.022 | gandotinib -0.028 | tozasertib -0.01 | doramapimod 0.004 | bafetinib 0.053 | [2] -0.04 | nilotinib 0.055 | [3] -0.002 | dasatinib 0.039 | [4] 0.034 | [5] -0.012 | quisinostat 0.026 | tipifarnib 0.017 | [6] 0 | [7] -0.037 | [8] 0.008

(cont.)

GTPBP1 (UniProt O00178)
inactive: lapatinib -0.003 | pictilisib -0.015 | crizotinib -0.022 | [1] -0.112 | duvelisib -0.005 | gandotinib 0.021 | tozasertib -0.002 | doramapimod -0.001 | bafetinib -0.024 | [2] 0.001 | nilotinib 0.018 | [3] -0.004 | dasatinib -0.029 | [4] 0.005 | [5] -0.009 | quisinostat 0.059 | tipifarnib -0.008 | [6] -0.011 | [7] 0.012 | [8] -0.018

GSTT1 (UniProt P30711)
inactive: lapatinib 0.031 | pictilisib -0.006 | crizotinib 0.011 | [1] 0.034 | duvelisib 0.023 | gandotinib -0.052 | tozasertib -0.016 | doramapimod 0.01 | bafetinib -0.009 | [2] -0.058 | nilotinib -0.022 | [3] 0.023 | dasatinib -0.031 | [4] 0.086 | [5] -0.036 | quisinostat -0.025 | tipifarnib 0.01 | [6] -0.019 | [7] -0.015 | [8] -0.011

HADHA (UniProt P40939)
inactive: lapatinib 0.1 | pictilisib 0.077 | crizotinib 0.063 | [1] -0.01 | duvelisib 0.037 | gandotinib 0.129 | tozasertib -0.013 | doramapimod 0.207 | bafetinib 0.032 | [2] -0.053 | nilotinib 0.051 | [3] -0.024 | dasatinib -0.036 | [4] 0.002 | [5] 0.03 | quisinostat -0.082 | tipifarnib 0.025 | [6] -0.077 | [7] -0.071 | [8] 0.078

HEATR5B (UniProt Q9P2D3)
inactive: lapatinib -0.018 | pictilisib -0.062 | crizotinib -0.01 | [1] -0.011 | duvelisib 0.023 | gandotinib -0.065 | tozasertib 0.019 | doramapimod 0.037 | bafetinib -0.16 | [2] 0.037 | nilotinib 0.038 | [3] 0.012 | dasatinib -0.043 | [4] 0.02 | [5] 0.032 | quisinostat 0.002 | tipifarnib -0.013 | [6] -0.024 | [7] 0.008 | [8] 0.002

HDGF (UniProt P51858)
inactive: lapatinib 0.02 | pictilisib 0 | crizotinib 0.016 | [1] 0.079 | duvelisib 0.003 | gandotinib -0.033 | tozasertib 0.023 | doramapimod -0.021 | bafetinib 0.03 | [2] -0.068 | nilotinib -0.012 | [3] -0.007 | dasatinib 0.018 | [4] -0.001 | [5] -0.016 | quisinostat 0.013 | tipifarnib 0.007 | [6] -0.02 | [7] -0.006 | [8] -0.006

GTF2H1 (UniProt P32780)
inactive: lapatinib -0.03 | pictilisib -0.017 | crizotinib -0.028 | [1] 0.032 | duvelisib 0.023 | gandotinib 0.035 | tozasertib -0.019 | doramapimod -0.001 | bafetinib -0.03 | [2] -0.021 | nilotinib 0.009 | [3] 0.013 | dasatinib -0.012 | [4] -0.04 | [5] 0.043 | quisinostat -0.064 | tipifarnib 0.084 | [6] 0.06 | [7] 0.037 | [8] -0.036

H1-5 (UniProt P16401)
inactive: lapatinib -0.026 | pictilisib 0.022 | crizotinib 0.004 | [1] 0.02 | duvelisib -0.03 | gandotinib -0.018 | tozasertib -0.046 | doramapimod -0.046 | bafetinib 0.002 | [2] -0.028 | nilotinib 0 | [3] 0.012 | dasatinib -0.042 | [4] 0.013 | [5] -0.05 | quisinostat -0.001 | tipifarnib 0.02 | [6] -0.022 | [7] -0.015 | [8] -0.011

H4C1 (UniProt P62805)
inactive: lapatinib -0.043 | pictilisib -0.069 | crizotinib 0.032 | [1] 0.003 | duvelisib -0.16 | gandotinib 0 | tozasertib -0.027 | doramapimod 0.006 | bafetinib 0.059 | [2] -0.044 | nilotinib 0.051 | [3] -0.027 | dasatinib -0.063 | [4] -0.033 | [5] 0.048 | quisinostat 0.137 | tipifarnib 0 | [6] -0.032 | [7] 0.01 | [8] 0.015

GSPT2 (UniProt Q8IYD1)
inactive: lapatinib 0.001 | pictilisib -0.056 | crizotinib -0.065 | [1] -0.098 | duvelisib -0.042 | gandotinib 0.077 | tozasertib 0.008 | doramapimod -0.009 | bafetinib -0.092 | [2] 0.014 | nilotinib -0.007 | [3] -0.028 | dasatinib 0.071 | [4] 0.104 | [5] 0.066 | quisinostat -0.133 | tipifarnib 0 | [6] 0.045 | [7] -0.001 | [8] 0.059

Source: the supplement of paper PMC10849652
